This assay has as its target T1, WSB2 (WD repeat and SOCS box containing protein 2) (human (endogenous; human melanoma cells or tissues, sample not named)) (UniProt Q9NYS7).
T1 sequence: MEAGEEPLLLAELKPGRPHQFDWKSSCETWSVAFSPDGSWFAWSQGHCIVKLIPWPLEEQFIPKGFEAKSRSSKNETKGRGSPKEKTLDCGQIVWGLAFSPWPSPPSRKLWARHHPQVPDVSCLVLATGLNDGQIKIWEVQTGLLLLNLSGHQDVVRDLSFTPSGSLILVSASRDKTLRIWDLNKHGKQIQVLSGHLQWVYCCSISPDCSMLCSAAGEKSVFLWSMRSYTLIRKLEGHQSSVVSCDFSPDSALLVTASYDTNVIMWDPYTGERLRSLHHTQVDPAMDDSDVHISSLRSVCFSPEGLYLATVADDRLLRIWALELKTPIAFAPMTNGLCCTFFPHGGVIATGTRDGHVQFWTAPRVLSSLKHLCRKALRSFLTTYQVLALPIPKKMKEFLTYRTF
The assay can be described thus: co-IP; WSB2 antibody (2 µl) added to 200 µl protein lysate, 24 h at 4°C, Protein A/G magnetic beads 3 h at 4°C; normal rabbit IgG as negative control; western blot.

The chains behind the UniProt entries cited, without tags or fusion partners.
UniProt Q15291: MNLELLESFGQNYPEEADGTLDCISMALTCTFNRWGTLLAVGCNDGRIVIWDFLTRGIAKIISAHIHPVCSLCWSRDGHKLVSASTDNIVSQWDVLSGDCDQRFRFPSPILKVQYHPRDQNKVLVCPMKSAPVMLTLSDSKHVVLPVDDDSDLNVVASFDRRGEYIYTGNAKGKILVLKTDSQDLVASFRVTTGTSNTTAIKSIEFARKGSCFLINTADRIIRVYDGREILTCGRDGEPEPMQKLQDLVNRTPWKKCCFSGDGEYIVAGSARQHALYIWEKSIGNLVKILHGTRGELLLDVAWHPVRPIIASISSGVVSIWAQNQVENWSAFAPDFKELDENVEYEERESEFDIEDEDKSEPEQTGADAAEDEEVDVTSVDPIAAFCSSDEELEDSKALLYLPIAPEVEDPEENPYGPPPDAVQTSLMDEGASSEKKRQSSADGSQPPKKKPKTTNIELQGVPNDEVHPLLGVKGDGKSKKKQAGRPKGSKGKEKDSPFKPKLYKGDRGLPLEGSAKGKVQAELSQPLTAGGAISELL

The source of these data is paper PMC9974310.

These are yes or no findings as the source states them, for the method shown. In cells and extracts the contact can be indirect. Some entries that bind do so weakly or less than the wild type.

In the case of “Retinoblastoma-binding protein 5 (RBBP5) (from UniProt Q15291 1-538)”, the binding result was “binds”.
